Source: PubChem BioAssay AID504764 (Drosophila RNAi Screening Center, 2011)

- Screen: 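Genome-wide screen for regulators of Notch-driven gene expression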 (primary screen)
- Cells: Drosophila Kc167 cells
- Knock-down reagent: long dsRNA against Drosophila genes
- Time to read-out: about 5 days (4 days dsRNA, then 24 h after transfection)
- Treatment: transfection of constitutively active membrane-tethered Notch lacking the extracellular domain, read 24 h later
- Measured: 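Firefly luciferase from an E(spl)m3 reporter with active Notch, plus control-promoter and uninduced reporter wells for normalisation; unnormalised counts, duplicate wells a and b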
- Direction: induced reporter light, run 1, well a and induced reporter light, run 1, well b: higher = more light from the Notch target reporter with active Notch; control promoter light, run 1, well a and control promoter light, run 1, well b: higher = more light from the viral control promoter (cell number, transfection, viability); uninduced reporter light, run 1, well a: higher = more light from the Notch target reporter without active Notch
- Active means: 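Wells with low control signal or poorly matching duplicates excluded; duplicates averaged; per source plate, z beyond ±2 for induced/control log2 ratio or beyond ±1.8 for induced/uninduced marks a hit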
- Calls: active = modifier hit (raised or lowered Notch signal); inactive = not a hit
The screen tested about 22,000 reagents; this is an unselected part of those that have a named target and a result. Over the whole deposit, 403 (1.9%) got an active call. 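Unnormalised raw counts per well; ratio z-scores behind the hit calls and whether each hit raises or lowers signal are not deposited.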 Reagents against one gene are numbered here. A plus sign joins genes that one reagent is predicted to hit. Not given: the amount of reagent.

gene knocked down	reagent no.	induced reporter light, run 1, well a	induced reporter light, run 1, well b	control promoter light, run 1, well a	control promoter light, run 1, well b	uninduced reporter light, run 1, well a	Outcome
CG7565	1	1.30e5	1.42e5	1.09e5	72430	13270	inactive
SkpB (SKP1-related B)	1	1.12e5	1.26e5	1.62e5	1.77e5	11570	inactive
CG5543	1	2.29e5	2.03e5	1.59e5	1.63e5	15720	inactive
Ir56c (Ionotropic receptor 56c)	1	1.37e5	1.36e5	1.40e5	1.40e5	11625	inactive
SNF4Agamma (SNF4/AMP-activated protein kinase gamma subunit)	1	52615	48610	75645	57640	8760	inactive
SNF4Agamma (SNF4/AMP-activated protein kinase gamma subunit)	2	61710	73805	77430	73045	9185	inactive
SNF4Agamma (SNF4/AMP-activated protein kinase gamma subunit)	3	2.22e5	1.83e5	1.80e5	1.91e5	13715	inactive
SNF4Agamma (SNF4/AMP-activated protein kinase gamma subunit)	4	1.55e5	2.04e5	1.94e5	1.88e5	14745	inactive
CG9992	1	1.92e5	1.92e5	2.88e5	2.27e5	12728	inactive
jhamt (juvenile hormone acid methyltransferase)	1	1.38e5	1.51e5	1.37e5	1.49e5	13630	inactive
EMC2B + EMC2A	1	2.45e5	2.23e5	2.36e5	2.40e5	17500	inactive
wal (walrus)	1	2.34e5	1.57e5	1.74e5	1.60e5	14438	inactive
CG33144	1	52260	44510	22550	24230	5750	inactive
CG33144	2	1.87e5	2.14e5	2.06e5	2.40e5	14915	inactive
CG11911	1	1.76e5	2.25e5	1.87e5	2.43e5	17420	inactive
Sec61alpha (Sec61 alpha subunit)	1	2.19e5	2.69e5	2.31e5	2.47e5	15370	inactive
erm (earmuff)	1	50450	48480	43620	46535	3320	inactive
Aduk (Another Drosophila Unc-51-like kinase)	1	1.03e5	1.10e5	95170	86820	4630	inactive
CG8086	1	64025	82440	77685	70815	7065	inactive
CG8086	2	1.77e5	1.97e5	1.13e5	1.34e5	21805	inactive
CG9536	1	1.71e5	1.87e5	1.53e5	1.82e5	19085	inactive
CG9795	1	71880	61945	32295	34975	7985	inactive
CG15046	1	1.21e5	1.10e5	1.38e5	1.25e5	14260	inactive
Rbp4 (RNA-binding protein 4)	1	2.43e5	2.77e5	1.95e5	1.84e5	19595	inactive
cni (cornichon)	1	1.60e5	1.97e5	1.53e5	2.05e5	15310	inactive
hyd (hyperplastic discs)	1	52670	43550	52005	34790	3205	inactive
SoxN (SoxNeuro)	1	1.07e5	1.38e5	1.04e5	1.12e5	19070	inactive
SoxN (SoxNeuro)	2						inactive
CG40583 (retired record)	1	2.66e5	2.18e5	3.34e5	3.02e5	19140	inactive
mre11 (meiotic recombination 11)	1	2.64e5	2.53e5	2.60e5	2.58e5	18705	inactive
ninaE (neither inactivation nor afterpotential E)	1	2.00e5	1.54e5	1.77e5	2.06e5	12020	inactive
CR42745 (retired record)	1	1.96e5	2.04e5	2.18e5	2.58e5	16325	inactive
mbo (members only)	1	1.30e5	1.31e5	95020	80685	8825	inactive
CG13229	1	64275	1.13e5	1.12e5	1.28e5	11140	inactive
CG34011	1	1.23e5	1.15e5	1.63e5	1.40e5	9200	inactive
CG17982	1	1.30e5	1.28e5	2.36e5	2.14e5	10460	inactive
scaf (scarface)	1	2.16e5	1.97e5	1.77e5	1.92e5	12205	active
His-Psi:CR31616 + His-Psi:CR31615	1	91745	79080	69455	69910	8215	inactive
CG15225	1	46575	45320	45780	32605	1840	inactive
CG5846	1	2.18e5	2.24e5	2.13e5	1.96e5	15625	inactive
CG32107	1	1.95e5	1.72e5	2.63e5	2.48e5	17405	inactive
sl (small wing)	1	1.71e5	1.32e5	2.44e5	2.35e5	11170	inactive
boil (boilerman)	1	1.50e5	1.55e5	2.43e5	2.59e5	10215	inactive
CG15332	1	1.20e5	1.43e5	2.87e5	2.17e5	9690	inactive
Or10a (Odorant receptor 10a)	1	1.12e5	1.16e5	1.58e5	2.15e5	8815	inactive
Coq4 + Gorab + frc	1	1.69e5	2.18e5	2.83e5	3.07e5	6690	inactive
CG34357	1	1.61e5	1.32e5	1.18e5	1.20e5	17410	inactive
CG34357	2	47425	39095	27245	29340	7535	inactive
CG34357	3	52700	58675	45785	42060	3810	inactive
CG14322	1	1.96e5	1.71e5	2.15e5	2.24e5	16480	inactive
CG8043	1	87245	77215	59820	61440	3895	inactive
CG9822	1	79110	46695	50530	66685	2720	inactive
CG9628	1	1.01e5	1.29e5	76315	87640	8205	inactive
CG12316	1	1.26e5	1.23e5	64440	76555	11260	inactive
rols (rolling pebbles)	1	2.13e5	1.55e5	2.64e5	1.83e5	11370	inactive
rols (rolling pebbles)	2	1.69e5	1.29e5	1.97e5	1.60e5	9385	inactive
rols (rolling pebbles)	3	63390	71395	1.13e5	93260	3345	inactive
eIF3e (eukaryotic translation initiation factor 3 subunit e)	1	22620	19870	17535	16560	810	inactive
epsilonCOP (Coat Protein (coatomer) epsilon)	1	68460	77785	66550	71080	5795	inactive
Pi4KIIIalpha (Phosphatidylinositol 4-kinase III alpha)	1	1.33e5	1.42e5	1.94e5	2.16e5	10085	inactive
CG13039	1	2.70e5	1.70e5	2.41e5	2.39e5	5710	inactive
wa-cup (walker cup)	1	87740	1.15e5	1.10e5	1.01e5	5870	inactive
AP-2sigma (Adaptor Protein complex 2, sigma subunit)	1	1.39e5	1.25e5	1.60e5	1.55e5	7888	inactive
Rack1 (Receptor of activated protein kinase C 1)	1	91425	1.05e5	53490	65065	12935	inactive
